The text below walks through data of publication PMC7819943, “Rice protein-binding microarrays: a tool to detect cis-acting elements near promoter regions in rice”.

By UniProt entry, the sequences of proteins in these tests, tags left out.
UniProt Q0JBA9, entry or part of it: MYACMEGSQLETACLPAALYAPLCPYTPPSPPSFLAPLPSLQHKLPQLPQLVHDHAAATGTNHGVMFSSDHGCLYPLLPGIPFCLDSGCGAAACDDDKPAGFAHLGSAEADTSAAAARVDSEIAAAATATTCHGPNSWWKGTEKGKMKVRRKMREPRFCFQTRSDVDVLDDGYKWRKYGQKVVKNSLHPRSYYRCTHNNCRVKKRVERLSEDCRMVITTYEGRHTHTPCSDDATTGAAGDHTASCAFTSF

This is one part of the list.

This assay concerns the target OsWRKY34 (Oryza sativa, UniProt Q0JBA9 1-250). The experiment in a line: protein-binding microarray (RPBM); PBS, 2% BSA, 51.3 ng/ul salmon testes DNA, 50 uM zinc acetate, 200 nM TF, 25 C, 1 h; high values mean tight binding. Particulars: protein: recombinant; tags: N-terminal polyhistidine and DsRed monomer fusion (pET32a); label: CyDye5-dUTP incorporated in the synthesized complementary strand; 3' TTTTT single-stranded linker to array surface; dsDNA, one strand shown. The gist of the method: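 Using Ni–NTA, transcription factors fused N-terminally to polyhistidine and DsRed were purified after expression in E. coli BL21-CodonPlus. These were incubated at 200 nM with a blocked, double-stranded custom Agilent array for 1 h at 25 °C in a buffer containing 50 µM zinc acetate, and the array was washed. The binding signal is per-feature fluorescence intensity (arbitrary units) on an Axon 4000B scanner.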
For “GCGACGGCGTTGGTGGCTTCCCGGTGATGTTTTTATTTTTCGGAGTCACCTAGTGCAG”, the binding signal is 13700 fluorescence intensity (a.u.). As to “GAATTTGAGGGTTGTGTTTTCCTTTCGGGCAAATTTCAGTCGGAGTCACCTAGTGCAG”, the binding signal was 9420 fluorescence intensity (a.u.). Regarding “GCTAAAAAGTCAACGGTGTCAAACATTTTGAAACGGAGGGCGGAGTCACCTAGTGCAG”, the binding signal is 12100 fluorescence intensity (a.u.). To “TAATATTAGCTAAATTTGTATCGTCTTATATCCTATTTTTCGGAGTCACCTAGTGCAG” belongs 8160 fluorescence intensity (a.u.); to “TGCTGCTTTTGCTGGATCAAGCATCATGAGTGAATAGTCCCGGAGTCACCTAGTGCAG”, 9220 fluorescence intensity (a.u.); to “CTCCGCCGTCGCGTCCCCGCCGCCGCCGCCCGCCTTCCCCCGGAGTCACCTAGTGCAG”, 9960 fluorescence intensity (a.u.). With “CTCGTCGGCCTCAACCACCTTCTTGGGATCTGCGCAACACCGGAGTCACCTAGTGCAG” the figure was 9800 fluorescence intensity (a.u.); with “AATCAGGGAAATTTCTTTTTCGTGCGGTTTGAGTTTCGACCGGAGTCACCTAGTGCAG”, 8220 fluorescence intensity (a.u.). To “TGTACTGGCTTTTCACTCAGCTGCACTACTACTATCTACACGGAGTCACCTAGTGCAG” belongs 8420 fluorescence intensity (a.u.); to “AAGCTTAATTAGGTGGTTTTTGATCTGATCACGCGCCATGCGGAGTCACCTAGTGCAG”, 8080 fluorescence intensity (a.u.); to “CCCACCTCGCCCCGTCGACGCCCGCGCCACCCACGACGCACGGAGTCACCTAGTGCAG”, 8130 fluorescence intensity (a.u.). Turning to “TTAATACTTTAAATGTGTGTCCGTATATCCGATGTAATACCGGAGTCACCTAGTGCAG”, the binding signal is 8050 fluorescence intensity (a.u.).

With “GGATGGTTGGGGTAACCTTTTCTTTTACTACAAGGGTAGACGGAGTCACCTAGTGCAG”, the binding signal was 9410 fluorescence intensity (a.u.).

“CCGCAAACCCACTCCGATCGCAAATACTCTCTCTCGCCGACGGAGTCACCTAGTGCAG”: the binding signal is 9170 fluorescence intensity (a.u.). With “TTGCGCCAAGACGAGTCGCGGGTGAACAGGGGAGGGGACGCGGAGTCACCTAGTGCAG” the figure was 8390 fluorescence intensity (a.u.); with “CGTTGCATATCGTGTCCGTTTTCTTTGTTCTTTACCTGCTCGGAGTCACCTAGTGCAG”, 12100 fluorescence intensity (a.u.).

Consider “ATATCATATCAGCTGGACGATATCGCTAACGTTATCCTTACGGAGTCACCTAGTGCAG”, for which the binding signal was 8860 fluorescence intensity (a.u.). Consider “TTAACTCGACAGTTTGTGTGTGATTTCAGTACTACCACGACGGAGTCACCTAGTGCAG”, for which the binding signal is 10400 fluorescence intensity (a.u.). For “GCCAACACCGCTACACCCAGCGCAAAACCTCGCATTCCTGCGGAGTCACCTAGTGCAG”, the binding signal is 8790 fluorescence intensity (a.u.). As to “TATGGCACGGTTTATTTTCCTTTCATTTCTACAGGCAGATCGGAGTCACCTAGTGCAG”, the binding signal is 8910 fluorescence intensity (a.u.). To “CTTTGTCTATATAGGAGTATTATTTATGTGCTATAACCTTCGGAGTCACCTAGTGCAG” belongs 8600 fluorescence intensity (a.u.). Turning to “GCCTGAGCTGCTTGTTTCAACCGAGATAATTACGTTGACTCGGAGTCACCTAGTGCAG”, the binding signal was 9500 fluorescence intensity (a.u.).

With “ATCCGATCCGCTTTCATCCCTAGACTGCATGGCGCGGTTCCGGAGTCACCTAGTGCAG”, the binding signal is 8110 fluorescence intensity (a.u.).

For the sequence “CCATTTCATATTGTAAGACTTTTTAGCATTGCCTATATTTCGGAGTCACCTAGTGCAG”, the binding signal is 11600 fluorescence intensity (a.u.). With “GTGGTGGTCTTGGCCATGGAGGCGGCATTGGAGGCGGGTTCGGAGTCACCTAGTGCAG” the figure was 8410 fluorescence intensity (a.u.); with “GATCCTATCCCAGTTCTTTAATGAATATTTTTAGCTATCGCGGAGTCACCTAGTGCAG”, 8500 fluorescence intensity (a.u.); with “GTTTTTATCTCTCCTGCAATTCTATATGTGCTGTACACCACGGAGTCACCTAGTGCAG”, 8450 fluorescence intensity (a.u.).

Take “TCATGTGTTTTTTTTATATTTGTTCATTTTATTAATCATGCGGAGTCACCTAGTGCAG”: the binding signal is 9890 fluorescence intensity (a.u.). With “GACTACGGCGCGCGGGCGGGCGGGAGGGCGGACGCGGCGGCGGAGTCACCTAGTGCAG” the figure was 11800 fluorescence intensity (a.u.); with “GATCTAAGCCACGTTTCCACTTCCATCCCGCGGCGCCGCCCGGAGTCACCTAGTGCAG”, 14300 fluorescence intensity (a.u.). For the sequence “GTTTCTATCCGTTCTGATTTGTTGTATTGGAAAAATAATTCGGAGTCACCTAGTGCAG”, the binding signal is 8160 fluorescence intensity (a.u.). Consider “TCACTACTGTTGATGTGCTTATTTTATGTTCCACCTGGTGCGGAGTCACCTAGTGCAG”, for which the binding signal was 10000 fluorescence intensity (a.u.).

In the case of “CGGGGTGTAGTCGTCCTGCATTTTGGGTTTTGCAAACCTCCGGAGTCACCTAGTGCAG”, the binding signal was 11800 fluorescence intensity (a.u.). With “CGTCTCGTCTGCGCTCCTTCGCCTGCGCCGATCTCCATCTCGGAGTCACCTAGTGCAG” the figure was 9280 fluorescence intensity (a.u.); with “TAAGACGTTTTGACTTTGGTCAAACTGTTTGGTCAAAGTCCGGAGTCACCTAGTGCAG”, 10600 fluorescence intensity (a.u.). As for “GTGCTCTCTAGTTTTATACTCCATCTCGCTCGCTCACTCACGGAGTCACCTAGTGCAG”, the binding signal is 12600 fluorescence intensity (a.u.). To “AGTCATTGTTTTAGGATGTGTCACATCCACCCAAAATCACCGGAGTCACCTAGTGCAG” belongs 9770 fluorescence intensity (a.u.); to “ACGCTGTTGTAATTCCAGATGTTGGTCAGTAGTCATTACTCGGAGTCACCTAGTGCAG”, 10700 fluorescence intensity (a.u.); to “ATACTGATCTTTGCATTCTCATACCCCATACACCACAAAACGGAGTCACCTAGTGCAG”, 8900 fluorescence intensity (a.u.). Consider “CCATCCATCCTGTTTTCCCACATGGTATCAGAGCGCTGAACGGAGTCACCTAGTGCAG”, for which the binding signal is 9540 fluorescence intensity (a.u.). For “GTCGCGCTCGGCCTTTCTGCTTTCGCTTTCACAGTTTCACCGGAGTCACCTAGTGCAG”, the binding signal is 12000 fluorescence intensity (a.u.). In the case of “AAAATCTAGCGTTCCTTTGCTACTCCGTAGTTTCCGTCGACGGAGTCACCTAGTGCAG”, the binding signal was 8810 fluorescence intensity (a.u.).
